Consider one substance from doi:10.1101/2023.03.07.531572.

Sequences of proteins named here, by UniProt entry; tags and fusion partners are left off.
UniProt Q9W3M3: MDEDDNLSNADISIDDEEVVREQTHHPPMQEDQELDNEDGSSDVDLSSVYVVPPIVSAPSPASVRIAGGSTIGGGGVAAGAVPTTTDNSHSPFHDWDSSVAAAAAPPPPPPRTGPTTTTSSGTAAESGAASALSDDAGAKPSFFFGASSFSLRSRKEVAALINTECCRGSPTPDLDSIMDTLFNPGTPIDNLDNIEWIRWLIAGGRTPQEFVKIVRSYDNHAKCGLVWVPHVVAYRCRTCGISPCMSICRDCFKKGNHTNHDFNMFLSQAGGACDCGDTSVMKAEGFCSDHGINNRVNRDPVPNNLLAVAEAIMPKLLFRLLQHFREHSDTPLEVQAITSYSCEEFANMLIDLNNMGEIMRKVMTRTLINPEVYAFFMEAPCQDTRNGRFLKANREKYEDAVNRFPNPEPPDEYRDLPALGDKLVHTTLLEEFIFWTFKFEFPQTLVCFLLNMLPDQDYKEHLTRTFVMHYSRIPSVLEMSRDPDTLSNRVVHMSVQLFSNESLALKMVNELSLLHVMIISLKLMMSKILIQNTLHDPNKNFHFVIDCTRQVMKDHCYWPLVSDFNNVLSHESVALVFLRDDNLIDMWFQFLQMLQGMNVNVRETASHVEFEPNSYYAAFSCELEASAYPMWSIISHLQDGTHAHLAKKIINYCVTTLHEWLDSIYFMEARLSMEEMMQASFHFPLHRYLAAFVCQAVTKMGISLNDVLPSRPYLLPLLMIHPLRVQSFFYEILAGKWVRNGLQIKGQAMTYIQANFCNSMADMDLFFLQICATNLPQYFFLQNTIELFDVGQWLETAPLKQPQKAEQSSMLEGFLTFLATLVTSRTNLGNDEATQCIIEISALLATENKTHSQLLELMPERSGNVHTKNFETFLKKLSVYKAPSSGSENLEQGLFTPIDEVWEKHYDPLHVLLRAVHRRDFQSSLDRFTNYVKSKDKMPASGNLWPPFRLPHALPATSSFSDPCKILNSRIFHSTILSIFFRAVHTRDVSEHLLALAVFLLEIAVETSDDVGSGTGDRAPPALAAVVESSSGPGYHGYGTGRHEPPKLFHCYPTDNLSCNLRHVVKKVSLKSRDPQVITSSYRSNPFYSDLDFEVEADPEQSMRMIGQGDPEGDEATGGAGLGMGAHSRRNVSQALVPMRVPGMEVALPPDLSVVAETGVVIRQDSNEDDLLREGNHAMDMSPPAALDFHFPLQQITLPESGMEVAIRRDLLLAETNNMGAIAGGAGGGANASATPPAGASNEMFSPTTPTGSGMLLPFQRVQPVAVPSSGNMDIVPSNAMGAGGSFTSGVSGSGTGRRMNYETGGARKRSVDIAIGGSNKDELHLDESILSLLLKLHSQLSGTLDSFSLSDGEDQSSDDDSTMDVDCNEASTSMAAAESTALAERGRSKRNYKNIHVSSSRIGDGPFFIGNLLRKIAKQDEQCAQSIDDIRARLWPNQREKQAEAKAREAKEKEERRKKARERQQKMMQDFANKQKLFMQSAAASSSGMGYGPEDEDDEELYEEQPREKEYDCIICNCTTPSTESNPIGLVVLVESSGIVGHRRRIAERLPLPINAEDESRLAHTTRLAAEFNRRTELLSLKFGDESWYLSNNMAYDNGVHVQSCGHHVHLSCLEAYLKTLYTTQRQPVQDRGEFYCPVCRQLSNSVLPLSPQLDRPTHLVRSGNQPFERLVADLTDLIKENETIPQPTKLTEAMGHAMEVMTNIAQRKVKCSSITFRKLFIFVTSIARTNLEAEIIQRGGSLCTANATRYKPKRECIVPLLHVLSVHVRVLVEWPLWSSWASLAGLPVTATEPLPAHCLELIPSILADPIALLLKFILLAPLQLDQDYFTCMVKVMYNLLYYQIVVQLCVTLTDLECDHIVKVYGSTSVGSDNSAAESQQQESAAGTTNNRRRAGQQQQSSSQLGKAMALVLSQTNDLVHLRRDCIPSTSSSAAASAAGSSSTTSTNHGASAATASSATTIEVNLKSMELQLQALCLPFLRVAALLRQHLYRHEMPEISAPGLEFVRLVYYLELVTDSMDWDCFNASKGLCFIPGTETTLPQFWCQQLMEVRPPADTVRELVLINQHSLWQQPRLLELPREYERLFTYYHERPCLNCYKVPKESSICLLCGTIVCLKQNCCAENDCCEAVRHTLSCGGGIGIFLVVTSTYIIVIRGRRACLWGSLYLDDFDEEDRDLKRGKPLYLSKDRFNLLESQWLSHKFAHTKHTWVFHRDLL

Where two headings read alike, the source gives them in different places. These are yes or no findings as the source states them, for the method shown. Binding seen in cells or lysates may run through a third protein. Some entries that bind do so weakly or less than the wild type. Where a sequence is shown, tags or fusion partners need not be part of it.

Experiment [1] concerns the target T1, DIAP1::GFP (Drosophila) (UniProt Q24306).
T1 sequence: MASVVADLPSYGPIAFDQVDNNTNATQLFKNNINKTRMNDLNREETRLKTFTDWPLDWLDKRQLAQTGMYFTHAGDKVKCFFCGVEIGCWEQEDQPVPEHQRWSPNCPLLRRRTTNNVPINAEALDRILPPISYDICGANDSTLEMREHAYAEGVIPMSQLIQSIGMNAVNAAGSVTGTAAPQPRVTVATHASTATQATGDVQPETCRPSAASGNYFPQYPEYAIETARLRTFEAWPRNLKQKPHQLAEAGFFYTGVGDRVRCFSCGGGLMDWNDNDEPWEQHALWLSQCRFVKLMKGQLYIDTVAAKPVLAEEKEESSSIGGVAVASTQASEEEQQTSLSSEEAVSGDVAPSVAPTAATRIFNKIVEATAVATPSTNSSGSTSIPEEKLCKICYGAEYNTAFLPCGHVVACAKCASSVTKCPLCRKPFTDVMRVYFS
The experiment can be described thus: co-IP.

The target in experiment [2] is T1, DIAP1::GFP (Drosophila). The experiment can be described thus: co-IP. This is another data set of the same source.

On to “Ubr3::V5 (from UniProt Q9W3M3 1-2219) (enzyme)”, for which the binding result with DIAP1::GFP (Drosophila) [1] was “binds”; with DIAP1::GFP (Drosophila) [2], “binds weakly”.
